# Taken from: PubChem BioAssay AID1224827 (NIAID, 2016)
# Screen: 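Retest primary hits on a TNF reporter with six siRNAs per gene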 (follow-up of hits)
# Cell system: RAW264.7 G9 mouse macrophage reporter clone
# Reagents: single siRNA against mouse genes, 100 nM siRNA
# Duration: siRNA for 2 days, then LPS about 16 h
# Challenge: bacterial lipopolysaccharide (LPS), 10 ng/ml, cells fixed after overnight (about 16 h) stimulation
# Detection: 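Imaged nuclear TNF reporter intensity, background removed, scaled per plate and to non-targeting control wells, as z-scores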
# Reading the numbers: TNF reporter z-score, mean and TNF reporter z-score: higher = stronger Tnf promoter reporter signal; gene median z, three same-vendor siRNAs: higher = stronger Tnf reporter signal for the gene
# Rule for the call: 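An siRNA is called active when its mean z-score over replicates is at least +2 or at most -2; control wells get no call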
# The deposit covers about 3,800 reagents; shown is an unselected part. About 2,200 of them (57%) count as active. 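Active means a strong reporter change in either direction; calls are per siRNA, not per gene; qiagen siRNAs gave weaker effects.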 Reagents against one gene are numbered here.
gene knocked down,reagent no.,"TNF reporter z-score, mean","gene median z, three same-vendor siRNAs","TNF reporter z-score, repeat 1","TNF reporter z-score, repeat 2",Call
Mobp (GeneID 17433),1,-1.32,-2.19,-1.57,-1.06,inactive
Mobp (GeneID 17433),2,-2.17,-2.19,-2.81,-1.53,active
Mobp (GeneID 17433),3,-4.41,-2.19,-3.81,-5.01,active
Zfp938 (GeneID 237411),1,0.246,-1.09,-0.899,1.39,inactive
Zfp938 (GeneID 237411),2,-1.63,-1.09,-0.831,-2.43,inactive
Zfp938 (GeneID 237411),3,-1.5,-1.09,-1.71,-1.28,inactive
Zfp938 (GeneID 237411),4,2.78,0.00686,5.7,-0.134,active
Zfp938 (GeneID 237411),5,1.78,0.00686,3.41,0.148,inactive
Zfp938 (GeneID 237411),6,-2.16,0.00686,-3.25,-1.07,active
Phox2a (GeneID 11859),1,6.51,0.129,6.75,6.28,active
Phox2a (GeneID 11859),2,0.129,0.129,-1.2,1.45,inactive
Phox2a (GeneID 11859),3,-2.05,0.129,-2.75,-1.34,active
Phox2a (GeneID 11859),4,2.16,0.411,3.18,1.14,active
Phox2a (GeneID 11859),5,1.28,0.411,3.7,-1.14,inactive
Phox2a (GeneID 11859),6,-0.727,0.411,-1.14,-0.317,inactive
Cldn6 (GeneID 54419),1,3.12,-2.74,0.271,5.98,active
Cldn6 (GeneID 54419),2,-2.74,-2.74,-1.88,-3.6,active
Cldn6 (GeneID 54419),3,-5.24,-2.74,-4.59,-5.89,active
Cldn6 (GeneID 54419),4,8.39,-1.17,13.7,3.11,active
Cldn6 (GeneID 54419),5,-2.24,-1.17,-3.2,-1.27,active
Cldn6 (GeneID 54419),6,-2.19,-1.17,-1.06,-3.33,active
Fads3 (GeneID 60527),1,-1.61,-2.56,-1.95,-1.27,inactive
Fads3 (GeneID 60527),2,-2.6,-2.56,-2.69,-2.52,active
Fads3 (GeneID 60527),3,-2.74,-2.56,-2.6,-2.87,active
Fads3 (GeneID 60527),4,5.83,-0.931,9.03,2.62,active
Fads3 (GeneID 60527),5,-0.931,-0.931,-0.645,-1.22,inactive
Fads3 (GeneID 60527),6,-2.14,-0.931,-1.33,-2.96,active
Tpp1 (GeneID 12751),1,-0.67,-1.66,-1.56,0.217,inactive
Tpp1 (GeneID 12751),2,-1.57,-1.66,-1.39,-1.76,inactive
Tpp1 (GeneID 12751),3,-4.85,-1.66,-4.43,-5.28,active
Slc16a11 (GeneID 216867),1,-2.05,-2.46,-2.23,-1.88,active
Slc16a11 (GeneID 216867),2,-2.49,-2.46,-2.6,-2.37,active
Slc16a11 (GeneID 216867),3,-3.29,-2.46,-2.54,-4.03,active
Slc16a11 (GeneID 216867),4,2.22,0.844,3.44,1,active
Slc16a11 (GeneID 216867),5,1.52,0.844,2.71,0.337,inactive
Slc16a11 (GeneID 216867),6,0.367,0.844,0.687,0.0468,inactive
Sh2d2a (GeneID 27371),1,-1.17,-3.25,-1.14,-1.2,inactive
Sh2d2a (GeneID 27371),2,-3.25,-3.25,-2.83,-3.67,active
Sh2d2a (GeneID 27371),3,-4.71,-3.25,-4.23,-5.19,active
Sh2d2a (GeneID 27371),4,1.57,-0.19,3.41,-0.271,inactive
Sh2d2a (GeneID 27371),5,0.991,-0.19,2.99,-1.01,inactive
Sh2d2a (GeneID 27371),6,-0.863,-0.19,-0.109,-1.62,inactive
Shbg (GeneID 20415),1,-0.797,-1.71,-1.17,-0.429,inactive
Shbg (GeneID 20415),2,-1.71,-1.71,-1.66,-1.77,inactive
Shbg (GeneID 20415),3,-2.56,-1.71,-3.06,-2.06,active
Shbg (GeneID 20415),4,1.01,-0.354,2.56,-0.537,inactive
Shbg (GeneID 20415),5,0.656,-0.354,1.48,-0.172,inactive
Shbg (GeneID 20415),6,-2.95,-0.354,-3.05,-2.85,active
Tbck (GeneID 271981),1,-1.42,-2.07,-0.627,-2.21,inactive
Tbck (GeneID 271981),2,-1.52,-2.07,-1.93,-1.11,inactive
Tbck (GeneID 271981),3,-4.03,-2.07,-4.48,-3.58,active
Cct8l1 (GeneID 242891),1,-0.0134,-2.47,-0.308,0.281,inactive
Cct8l1 (GeneID 242891),2,-2.47,-2.47,-2.93,-2.01,active
Cct8l1 (GeneID 242891),3,-5.02,-2.47,-4.32,-5.73,active
Cct8l1 (GeneID 242891),4,3.76,1.69,6.79,0.728,active
Cct8l1 (GeneID 242891),5,1.99,1.69,1.02,2.96,inactive
Cct8l1 (GeneID 242891),6,0.0447,1.69,2.37,-2.28,inactive

Taken from above:
Entry of Zfp938 (GeneID 237411) #3 in “TNF reporter z-score, mean”: -1.5
Value for Fads3 (GeneID 60527) #5 in “TNF reporter z-score, mean”: -0.931
Result of Shbg (GeneID 20415) #6 in “TNF reporter z-score, mean”: -2.95
Zfp938 (GeneID 237411) #1, TNF reporter z-score, repeat 2 = 1.39
